Test results taken from paper PMC7493860.
These are yes or no findings as the source states them, for the method shown. Some binding calls cover weakened binding; strength is not graded here.

Biological target: endogenous IRF3 (interferon response factor 3) of PK15 cells (pig (endogenous in PK15)) (UniProt Q764M6)
Experiment: native gel or EMSA

B1: endogenous IRF3 (interferon response factor 3) of PK15 cells (protein, UniProt Q764M6 1-419)
chain: MGTQKPRILPWLISQLNQGQLEGVAWLDEGHTRFRIPWKHGLRQDAQQEDFGIFQAWAEASGAYTPGKDKPDLPTWKRNFRSALNRKEALRLAEDHSKDPHDPHKIYEFVTSGVGDFPEPDTSLDLSGRYSTSDTHEDSLDKLLSGMDLASDAGPQSLTLALEQPPQLSLSPSVDAPASCPNLGVRENPLKQLLANDDEWEFQVTVFYRGCQVFQQTVCSPGGLRLVGSEAEDGTLAGQPVRLPDPAASLTDRGVADYVRRVLSCLGGGLALWRAGQWLWAQRLGHCHVYWAMGEELIPDSGHKPDGEVPKDREGGVFDLGPFIEDLIAFIEGSRRSPRYTLWFCMGQSWPQDEPWVKRLVMVKVVPMCLRALVDMARDGGASSLENTVDLHISNSHPLSLTSDQYKACLRDLVEDMDF
With B1 the binding was “binds”.
